Experimental data taken from patent US11452292B2, “Biofilm inhibitor and method of inhibiting biofilm” (NDSU Research Foundation, priority 2017, dated 2022).
At least one compound was matched to its structure with a doubt left.

Tests used:
Experiment in all cases: qPCR of mRNA transcript in response to AAA
[1] = tested on: inv
[2] = tested on: ymoA; conditions: 5 mg/ml AAA
[3] = tested on: flhD; conditions: AAA 5 mg ml^−1
[4] = tested on: virF; conditions: AAA 5 mg ml^−1
[5] = tested on: yadA; conditions: AAA 5 mg ml^−1
[6] = tested on: yopQ; conditions: AAA 5 mg ml^−1

CC(=O)CC(=O)O [AAA, acetoacetate]
reduction in mRNA levels of inv ([1]; 5 mg/ml AAA, 25° C., biofilm bound bacteria): slight reduction | effect on mRNA transcripts of inv ([1]; AAA 5 mg ml^−1): reduced | effect of AAA on ymoA transcription [2]: largely unaffected | effect on mRNA transcripts of flhD [3]: reduced | effect on transcription of virF [4]: largely unaffected | effect on mRNA transcripts of yadA [5]: reduced | effect on transcription of yopQ [6]: largely unaffected
